This is one part of the list. Most entries show no effect beyond the scatter of the controls.
Compound: Cc1nc(Nc2ncc(C(=O)Nc3c(C)cccc3Cl)s2)cc(N2CCN(CCO)CC2)n1 [dasatinib]
Assay: log2 fold change of tryptic peptide abundance, ligand vs vehicle (limited proteolysis) (log2 ratio); higher = more trypsin-susceptible (destabilized)
Settings: ligand concentration: 5 uM; sample: K562 cleared lysate

By UniProt entry, the sequences of proteins in these tests, tags left out. Where a name states a change or a piece, a line headed by the entry shows the natural chain unless it says otherwise.
UniProt P47985: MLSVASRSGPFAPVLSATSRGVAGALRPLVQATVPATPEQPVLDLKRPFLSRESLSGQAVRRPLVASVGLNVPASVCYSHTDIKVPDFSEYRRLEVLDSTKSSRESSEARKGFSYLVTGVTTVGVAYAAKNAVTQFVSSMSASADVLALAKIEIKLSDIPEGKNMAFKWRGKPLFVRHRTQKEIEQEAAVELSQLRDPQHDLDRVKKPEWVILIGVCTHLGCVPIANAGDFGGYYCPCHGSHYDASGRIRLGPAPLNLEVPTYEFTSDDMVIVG
UniProt P50502: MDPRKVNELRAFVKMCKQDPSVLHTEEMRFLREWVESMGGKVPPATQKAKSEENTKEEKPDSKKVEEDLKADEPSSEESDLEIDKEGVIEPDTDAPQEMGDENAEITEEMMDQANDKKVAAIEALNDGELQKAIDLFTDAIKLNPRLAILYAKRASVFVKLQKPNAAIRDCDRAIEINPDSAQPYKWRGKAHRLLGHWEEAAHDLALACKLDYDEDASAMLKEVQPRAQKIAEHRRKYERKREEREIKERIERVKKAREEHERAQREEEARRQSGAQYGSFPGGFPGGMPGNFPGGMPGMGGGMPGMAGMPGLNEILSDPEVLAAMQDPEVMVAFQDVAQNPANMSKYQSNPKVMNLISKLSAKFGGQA
UniProt P47974: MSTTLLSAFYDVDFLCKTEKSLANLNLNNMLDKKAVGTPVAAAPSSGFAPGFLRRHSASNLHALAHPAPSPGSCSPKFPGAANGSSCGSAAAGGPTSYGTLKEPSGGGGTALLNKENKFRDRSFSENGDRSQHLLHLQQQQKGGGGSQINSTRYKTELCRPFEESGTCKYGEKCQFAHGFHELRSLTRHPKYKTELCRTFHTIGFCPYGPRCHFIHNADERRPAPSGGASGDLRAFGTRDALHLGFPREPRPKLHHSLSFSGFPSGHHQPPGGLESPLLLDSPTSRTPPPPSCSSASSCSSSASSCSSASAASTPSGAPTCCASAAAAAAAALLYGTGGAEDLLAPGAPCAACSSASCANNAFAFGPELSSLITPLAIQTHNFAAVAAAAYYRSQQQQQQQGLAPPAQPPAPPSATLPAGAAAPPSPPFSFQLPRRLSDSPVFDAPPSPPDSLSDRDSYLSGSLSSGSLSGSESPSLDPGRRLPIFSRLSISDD
UniProt P49023, whole entry: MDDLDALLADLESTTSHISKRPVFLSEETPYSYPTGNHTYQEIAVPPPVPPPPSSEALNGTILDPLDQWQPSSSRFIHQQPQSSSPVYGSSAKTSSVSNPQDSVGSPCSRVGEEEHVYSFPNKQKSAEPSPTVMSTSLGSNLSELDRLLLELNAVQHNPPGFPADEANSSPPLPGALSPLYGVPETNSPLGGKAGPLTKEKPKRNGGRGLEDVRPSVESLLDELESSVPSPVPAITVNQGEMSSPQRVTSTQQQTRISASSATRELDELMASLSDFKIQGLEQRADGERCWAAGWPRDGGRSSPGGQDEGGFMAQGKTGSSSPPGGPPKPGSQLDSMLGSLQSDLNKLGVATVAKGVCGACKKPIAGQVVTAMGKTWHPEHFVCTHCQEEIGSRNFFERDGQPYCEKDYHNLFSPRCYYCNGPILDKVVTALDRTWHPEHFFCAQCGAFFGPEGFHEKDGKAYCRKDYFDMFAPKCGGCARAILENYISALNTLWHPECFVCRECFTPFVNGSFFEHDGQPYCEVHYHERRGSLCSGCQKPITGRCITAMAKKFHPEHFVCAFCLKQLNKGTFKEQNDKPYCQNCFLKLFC
UniProt P51553: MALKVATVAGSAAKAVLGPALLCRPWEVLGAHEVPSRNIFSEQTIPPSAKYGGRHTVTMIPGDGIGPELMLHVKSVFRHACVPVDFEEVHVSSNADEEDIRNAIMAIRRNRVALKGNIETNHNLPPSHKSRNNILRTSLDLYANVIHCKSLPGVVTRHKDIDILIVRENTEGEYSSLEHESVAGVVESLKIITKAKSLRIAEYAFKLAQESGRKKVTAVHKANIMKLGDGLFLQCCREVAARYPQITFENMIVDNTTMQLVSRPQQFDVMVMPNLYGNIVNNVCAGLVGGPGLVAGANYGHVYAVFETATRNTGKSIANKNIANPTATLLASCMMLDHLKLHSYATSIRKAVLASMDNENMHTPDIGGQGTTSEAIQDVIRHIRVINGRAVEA
UniProt P50613: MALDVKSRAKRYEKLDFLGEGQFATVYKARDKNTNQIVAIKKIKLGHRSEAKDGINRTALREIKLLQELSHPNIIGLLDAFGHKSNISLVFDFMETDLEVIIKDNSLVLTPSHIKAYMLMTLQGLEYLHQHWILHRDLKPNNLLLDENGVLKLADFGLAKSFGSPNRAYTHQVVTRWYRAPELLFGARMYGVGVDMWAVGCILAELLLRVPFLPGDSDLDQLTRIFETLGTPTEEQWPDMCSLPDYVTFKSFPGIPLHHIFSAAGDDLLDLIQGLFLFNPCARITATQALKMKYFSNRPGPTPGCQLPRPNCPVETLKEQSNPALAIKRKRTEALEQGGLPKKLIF
UniProt P51858: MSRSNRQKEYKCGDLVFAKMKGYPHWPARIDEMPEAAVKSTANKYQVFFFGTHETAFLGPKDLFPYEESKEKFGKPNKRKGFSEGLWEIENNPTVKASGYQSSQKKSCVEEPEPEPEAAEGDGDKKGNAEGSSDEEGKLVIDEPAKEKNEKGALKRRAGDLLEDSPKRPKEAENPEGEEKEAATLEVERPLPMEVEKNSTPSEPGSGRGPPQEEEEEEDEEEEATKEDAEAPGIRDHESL
UniProt P48739: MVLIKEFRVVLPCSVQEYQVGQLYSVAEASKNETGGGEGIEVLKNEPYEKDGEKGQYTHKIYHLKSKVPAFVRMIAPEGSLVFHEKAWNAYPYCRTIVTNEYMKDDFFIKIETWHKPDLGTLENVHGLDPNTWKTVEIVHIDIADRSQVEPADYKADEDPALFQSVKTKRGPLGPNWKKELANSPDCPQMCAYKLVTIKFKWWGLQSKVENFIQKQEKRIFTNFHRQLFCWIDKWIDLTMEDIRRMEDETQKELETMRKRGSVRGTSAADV
UniProt P54278: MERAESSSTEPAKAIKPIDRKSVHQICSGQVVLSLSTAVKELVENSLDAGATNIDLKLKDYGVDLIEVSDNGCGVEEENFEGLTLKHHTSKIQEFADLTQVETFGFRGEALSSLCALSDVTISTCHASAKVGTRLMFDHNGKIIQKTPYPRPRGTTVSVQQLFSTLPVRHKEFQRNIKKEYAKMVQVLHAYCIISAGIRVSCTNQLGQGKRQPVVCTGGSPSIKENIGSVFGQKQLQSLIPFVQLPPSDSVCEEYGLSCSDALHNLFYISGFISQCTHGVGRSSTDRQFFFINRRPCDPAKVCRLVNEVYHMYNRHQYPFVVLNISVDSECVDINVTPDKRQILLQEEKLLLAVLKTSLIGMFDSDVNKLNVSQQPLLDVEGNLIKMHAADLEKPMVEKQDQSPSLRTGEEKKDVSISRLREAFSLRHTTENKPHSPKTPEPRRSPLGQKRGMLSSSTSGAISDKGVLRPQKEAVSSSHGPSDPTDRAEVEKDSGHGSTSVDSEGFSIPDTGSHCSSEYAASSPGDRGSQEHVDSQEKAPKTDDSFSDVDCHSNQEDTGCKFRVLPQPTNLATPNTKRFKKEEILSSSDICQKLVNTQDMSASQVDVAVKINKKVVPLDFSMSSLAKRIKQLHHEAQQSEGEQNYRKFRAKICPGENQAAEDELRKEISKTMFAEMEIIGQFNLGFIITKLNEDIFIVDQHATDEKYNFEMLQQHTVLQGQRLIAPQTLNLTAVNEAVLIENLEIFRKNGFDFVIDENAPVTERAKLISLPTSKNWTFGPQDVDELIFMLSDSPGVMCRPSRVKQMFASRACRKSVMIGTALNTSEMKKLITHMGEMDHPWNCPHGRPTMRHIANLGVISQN
UniProt P50548: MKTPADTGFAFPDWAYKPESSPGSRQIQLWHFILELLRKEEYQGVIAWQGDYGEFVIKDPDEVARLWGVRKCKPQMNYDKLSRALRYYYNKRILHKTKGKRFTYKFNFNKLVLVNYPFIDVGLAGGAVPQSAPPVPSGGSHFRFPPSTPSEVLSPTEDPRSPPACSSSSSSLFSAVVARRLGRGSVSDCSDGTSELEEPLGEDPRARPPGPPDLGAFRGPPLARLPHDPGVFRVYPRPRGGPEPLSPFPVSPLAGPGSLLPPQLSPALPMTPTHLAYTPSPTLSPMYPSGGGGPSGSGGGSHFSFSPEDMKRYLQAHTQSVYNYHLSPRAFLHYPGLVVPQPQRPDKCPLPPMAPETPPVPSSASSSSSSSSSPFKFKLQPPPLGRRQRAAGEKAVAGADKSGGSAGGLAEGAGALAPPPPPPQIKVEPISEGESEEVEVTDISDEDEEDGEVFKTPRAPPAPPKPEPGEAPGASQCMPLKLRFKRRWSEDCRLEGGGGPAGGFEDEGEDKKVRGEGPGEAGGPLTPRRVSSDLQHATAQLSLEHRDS
UniProt P51784: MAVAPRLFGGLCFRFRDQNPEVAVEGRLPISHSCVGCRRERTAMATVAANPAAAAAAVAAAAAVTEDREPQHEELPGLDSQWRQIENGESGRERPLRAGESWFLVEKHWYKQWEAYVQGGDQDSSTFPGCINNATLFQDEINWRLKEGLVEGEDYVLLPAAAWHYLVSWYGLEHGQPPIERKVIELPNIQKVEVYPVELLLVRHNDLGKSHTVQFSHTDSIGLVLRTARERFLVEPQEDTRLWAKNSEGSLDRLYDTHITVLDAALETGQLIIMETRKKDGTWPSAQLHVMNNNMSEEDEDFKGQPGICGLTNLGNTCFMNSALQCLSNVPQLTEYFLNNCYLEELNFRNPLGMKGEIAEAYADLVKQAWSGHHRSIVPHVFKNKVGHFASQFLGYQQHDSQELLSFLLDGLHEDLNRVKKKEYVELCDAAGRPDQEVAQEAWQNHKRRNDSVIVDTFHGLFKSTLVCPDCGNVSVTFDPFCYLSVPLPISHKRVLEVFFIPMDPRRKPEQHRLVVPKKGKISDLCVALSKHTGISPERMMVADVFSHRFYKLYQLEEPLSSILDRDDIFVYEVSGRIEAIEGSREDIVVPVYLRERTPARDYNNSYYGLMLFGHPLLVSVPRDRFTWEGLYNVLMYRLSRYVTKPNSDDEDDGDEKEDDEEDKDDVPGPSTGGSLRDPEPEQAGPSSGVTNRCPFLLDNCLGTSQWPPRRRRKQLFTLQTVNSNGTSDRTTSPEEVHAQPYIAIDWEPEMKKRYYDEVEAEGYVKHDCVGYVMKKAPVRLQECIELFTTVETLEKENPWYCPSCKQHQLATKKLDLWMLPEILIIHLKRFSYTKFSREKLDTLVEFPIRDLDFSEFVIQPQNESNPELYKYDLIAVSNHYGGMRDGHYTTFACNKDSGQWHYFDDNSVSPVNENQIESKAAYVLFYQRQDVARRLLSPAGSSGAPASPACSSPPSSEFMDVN
UniProt P49257: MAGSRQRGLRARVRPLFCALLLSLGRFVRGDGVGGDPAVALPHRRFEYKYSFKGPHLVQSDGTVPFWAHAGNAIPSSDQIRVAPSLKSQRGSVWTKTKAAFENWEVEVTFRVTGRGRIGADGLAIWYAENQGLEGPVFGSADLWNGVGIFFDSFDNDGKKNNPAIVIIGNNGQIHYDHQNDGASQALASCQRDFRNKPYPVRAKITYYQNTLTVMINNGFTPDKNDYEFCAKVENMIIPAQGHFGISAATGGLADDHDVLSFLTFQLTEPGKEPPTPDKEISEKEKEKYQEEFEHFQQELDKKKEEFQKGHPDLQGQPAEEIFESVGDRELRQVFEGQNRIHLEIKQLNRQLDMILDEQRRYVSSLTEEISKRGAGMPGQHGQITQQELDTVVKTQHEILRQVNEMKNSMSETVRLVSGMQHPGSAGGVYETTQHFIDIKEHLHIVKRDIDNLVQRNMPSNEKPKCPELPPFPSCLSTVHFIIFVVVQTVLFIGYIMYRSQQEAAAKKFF
UniProt P49711: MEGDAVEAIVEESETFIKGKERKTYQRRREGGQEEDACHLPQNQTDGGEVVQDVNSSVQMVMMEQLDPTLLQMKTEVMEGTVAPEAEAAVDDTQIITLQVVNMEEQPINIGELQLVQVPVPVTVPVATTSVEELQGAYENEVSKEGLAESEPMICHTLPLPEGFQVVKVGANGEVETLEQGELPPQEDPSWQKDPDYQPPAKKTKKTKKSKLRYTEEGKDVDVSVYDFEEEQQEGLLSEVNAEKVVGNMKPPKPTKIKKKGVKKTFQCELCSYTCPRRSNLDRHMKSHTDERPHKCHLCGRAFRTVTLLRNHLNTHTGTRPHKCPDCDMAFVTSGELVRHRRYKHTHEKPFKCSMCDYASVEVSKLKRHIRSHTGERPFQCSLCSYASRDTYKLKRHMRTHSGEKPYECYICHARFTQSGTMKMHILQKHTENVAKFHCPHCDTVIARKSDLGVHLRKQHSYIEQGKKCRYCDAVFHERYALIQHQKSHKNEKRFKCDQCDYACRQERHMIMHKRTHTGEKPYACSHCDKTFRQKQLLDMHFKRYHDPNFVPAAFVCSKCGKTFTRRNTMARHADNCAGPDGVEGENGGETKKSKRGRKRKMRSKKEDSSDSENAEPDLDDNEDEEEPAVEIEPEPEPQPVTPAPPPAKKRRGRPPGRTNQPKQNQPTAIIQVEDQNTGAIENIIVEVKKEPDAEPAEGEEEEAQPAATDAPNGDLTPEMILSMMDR

| Target | log2 fold change |
| --- | --- |
| UQCRFS1 (peptide sequence: EIEQEAAVELSQLRDPQHDLDR, peptide start residue: 183) (UniProt P47985) | 0.0317 |
| ST13 (peptide sequence: EWVESMGGK, peptide start residue: 33) (UniProt P50502) | -0.163 |
| CCNH (peptide sequence: GYEDDDYVSKK, peptide start residue: 296) (UniProt P51946) | 0.307 |
| UniProt P46379 (peptide sequence: VIHLVER, peptide start residue: 81) | -0.141 |
| ZFP36L2 (peptide sequence: DALHLGFPR, peptide start residue: 240) (UniProt P47974) | -0.109 |
| DAP3 (peptide sequence: DLLQSSYNK, peptide start residue: 167) (UniProt P51398) | 0.343 |
| PRIM2 (peptide sequence: KEPIQPETPQPK, peptide start residue: 463) (UniProt P49643) | -0.426 |
| FASN (peptide sequence: AINCATSGVVGLVNCLRR, peptide start residue: 1445) (UniProt P49327) | -0.632 |
| PXN (peptide sequence: GSLCSGCQKPITGR, peptide start residue: 532) (UniProt P49023) | 0.091 |
| IDH3G (peptide sequence: LHSYATSIR, peptide start residue: 341) (UniProt P51553) | 0.101 |
| UniProt P50613 (peptide sequence: DLKPNNLLLDENGVLK, peptide start residue: 137) | 0.301 |
| HDGF (peptide sequence: KSCVEEPEPEPEAAEGDGDKK, peptide start residue: 106) (UniProt P51858) | 0.0799 |
| PEX5 (peptide sequence: WYDEYHPEEDLQHTASDFVAK, peptide start residue: 184) (UniProt P50542) | 0.169 |
| HLCS (peptide sequence: RGSASGSEPAGDSDR, peptide start residue: 77) (UniProt P50747) | 0.0963 |
| POLR2K (peptide sequence: CRECGYR, peptide start residue: 36) (UniProt P53803) | -0.617 |
| RANBP2 (peptide sequence: SGFEDMFAK, peptide start residue: 1534) (UniProt P49792) | 0.134 |
| VPS41 (peptide sequence: EGMEIPNLR, peptide start residue: 732) (UniProt P49754) | 0.144 |
| MSH6 (peptide sequence: FPDLTVELNR, peptide start residue: 902) (UniProt P52701) | -0.209 |
| PITPNB (peptide sequence: ADEDPALFQSVK, peptide start residue: 156) (UniProt P48739) | -0.115 |
| PMS2 (peptide sequence: QDQSPSLR, peptide start residue: 400) (UniProt P54278) | -0.095 |
| ERF (peptide sequence: ARPPGPPDLGAFRGPPLAR, peptide start residue: 206) (UniProt P50548) | -0.54 |
| UniProt P51784 (peptide sequence: DGHYTTFACNK, peptide start residue: 886) | 0.121 |
| LMAN1 (peptide sequence: DIDNLVQR, peptide start residue: 449) (UniProt P49257) | -0.211 |
| CTCF (peptide sequence: KTFQCELCSYTCPRR, peptide start residue: 264) (UniProt P49711) | -0.796 |
| HIRA (peptide sequence: SKATPGAPALTSMTPTAVER, peptide start residue: 573) (UniProt P54198) | -0.416 |
| MRPL19 (peptide sequence: TDPLKFQIERK, peptide start residue: 87) (UniProt P49406) | -0.0903 |
| FNTA (peptide sequence: DVYDYFR, peptide start residue: 98) (UniProt P49354) | 0.116 |
| HCFC1 (peptide sequence: SLHSATTIGNK, peptide start residue: 256) (UniProt P51610) | -0.418 |

Reference: the supplement of paper PMC12819154, “High-throughput peptide-centric local stability assay extends protein–ligand identification to membrane proteins, tissues and bacteria” (Nature Structural & Molecular Biology, 2025)
